B1: 2HCE27 anti-DLL3 VHH (VHH)
VHH: QVQLQESGGGLVQAGGSLRLSCAASGRTFRSYAMGWFRQAPGKEREFIAVIIMSDGSTSYADSVKGRFTISRDNAKNTLYLQMNSLKPEDTAVYYCAARRDYFTGVYDYWGQGTQVTVSS
notes: In the binning assay it was used as a periplasmic extract; also called anti-DLL3 (2HCE27)
B2: 2HCE117 anti-DLL3 VHH (VHH)
VHH: QVQLQESGGGLVQPGGSLRLSCAASGFTFSSYAMSWVRQAPGKGLEWVSDINSGGGSTYYADSVKGRFTISRDNAKNTLYLQMDSLKPEDTAVYYCATPFEIGSWGQGTQVTVSS
notes: In the binning assay it was used as a periplasmic extract
B3: 3HCE87 anti-DLL3 VHH (VHH)
VHH: QVQLQESGGGLVQAGGSLRLSCAASGFIFDDYIIGWFRQAPGKEREFVAAISWSGSATAYADSVKGRFTISRDNAKNTLYLQMNTLKPEDTAVYYCAASSRGPYNSGSSYDYWGQGTQVTVSS
notes: as for B2
B4: 3HCE56 anti-DLL3 VHH (VHH)
VHH: QVQLQESGGGLVQAGGSLRLSCAASGRTFSVDAMGWLRQAPGKEREFVVVIDWTGGSTAYADSVKGRFTISRDNARNTVYLQMNNLKPEDTGVYYCAARERSRTAYDYWGQGTQVTVSS
notes: as for B2
B5: 3HCE4 anti-DLL3 VHH (VHH)
VHH: QVQLQESGGGLVQAGASLKLSCAVSGRAGSSYDMGWLRQAPGKEREFVAIITWSGNTAYKDSVKGRFIISRDNAKNTVYLEMNSLAPEDTAVYYCAAALSEKKYEYWGQGTQVTVSS
notes: as for B2

For five molecules, binding results are on record in patent US20230227577A1 (MYTHIC THERAPEUTICS, published 2023).

Results are given in words; binding and its absence hold for the method and conditions named. Some results given as binding are weak or reduced against the parent protein; the word gives no strength.

For this experiment, the target named is cynomolgus DLL3 protein (cynomolgus). The experiment in a line: Octet (DLL3 on AR2G tips), ELISA and FACS; values only in FIG. 3. A general note: In BLI a coated tip is dipped into the sample, and binding shifts an interference pattern.
As to B1, the binding entry is “binds”. Consider B2, for which the binding result is listed as “binds”.

Consider B3, for which the binding result is given as “binds”. As to B4, the binding entry is given as “binds”. Turning to B5, the binding entry was “binds”.
